Measurements taken from PubChem BioAssay (NCATS).
The inconclusive results got no clear call from the source; some entries with a clear call stand among them for comparison. A potency beside an inconclusive call is a rough fit, not a confirmed value. Active and inactive are the calls of the source. Calls follow the shape of the full dose curve.

test system: Hepatitis C virus NS3/4A protease; experiment: Selectivity profile for inhibitors of NSP2Pro chikungunya virus (CHIKV): NS34A-HCV Counterscreen (AID 1964106); conditions: HCV NS3/4A protease biochemical counterscreen; activity change, negative = inhibition: at 50.9 µM (top of the series) unless noted; series mostly up to 50.9 µM; also: nearly all actives have a fitted effect of over 55% in size
% is scaled to controls: 0 for no effect and ±100 for the full control effect; potency is read from the fitted curve at half-maximal effect.

| Structure (SMILES) | activity change, negative = inhibition | Potency |
| --- | --- | --- |
| COC(O)(CC(C)C)C1Oc2cc(C)[nH]c(=O)c2O1 (configuration not stated) | inactive: -12.5% |  |
| O=C(Nc1ccc(N2CCN(CCOc3ccc(Cl)cc3)CC2)c(C(=O)O)c1)c1ccc(F)cc1 |  | active: 2.06 µM |
| C=CCNc1nnc(-c2cccc3ccccc23)o1 |  | inconclusive: 18.3 µM [inhibitor, partial curve] |
| CC(=O)NC1CC2(CCN(C(=O)CCCNC(=O)OC(C)(C)C)CC2)Oc2ccccc21 (configuration not stated) |  | inconclusive: 6.51 µM [inhibitor, full curve] |
| C=CCCCCCCCCC(=O)O | inactive: -32.5% [at 17.2 µM] |  |
| CCN(CC)Cc1ccc(C(=O)N(CCc2ccccc2OC)[C@@H]2CCNC2)cc1 |  | inconclusive: 15.9 µM [inhibitor, partial curve] |
| COCCN1C(=O)CO[C@H]2CN(c3ncccn3)C[C@H]21 |  | inconclusive: 18.8 µM [inhibitor, partial curve] |
